Test results taken from patent publication US20070185089A1, “Benzazepine derivatives for the treatment of neurological and psychiatric disorders” (Glaxo Group Limited, priority 2004, published 2007).
Where “and” joins values, the source holds several entries; their conditions need not be identical. Identical values can stand only once. Some results were stated once for a whole list of compounds, not compound by compound. For at least one compound, name, drawing or mass did not settle the structure.

The chains behind the UniProt entries cited, without tags or fusion partners. Where a name states a change or a piece, a line headed by the entry shows the natural chain unless it says otherwise.
UniProt Q9Y5N1: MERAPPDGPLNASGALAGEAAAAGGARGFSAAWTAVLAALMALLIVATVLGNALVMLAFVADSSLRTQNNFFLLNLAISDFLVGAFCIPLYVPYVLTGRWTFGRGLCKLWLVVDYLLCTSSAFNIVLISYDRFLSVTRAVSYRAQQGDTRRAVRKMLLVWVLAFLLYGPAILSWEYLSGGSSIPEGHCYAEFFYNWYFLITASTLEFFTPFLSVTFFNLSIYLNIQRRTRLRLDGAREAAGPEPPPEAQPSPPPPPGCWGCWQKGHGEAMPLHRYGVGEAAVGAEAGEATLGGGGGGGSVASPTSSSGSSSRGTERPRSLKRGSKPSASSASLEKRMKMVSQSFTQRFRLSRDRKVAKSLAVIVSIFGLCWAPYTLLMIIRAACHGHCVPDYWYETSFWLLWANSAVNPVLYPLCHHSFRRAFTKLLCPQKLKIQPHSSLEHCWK

Molecular target: T1, histamine H3 receptor (Homo sapiens, UniProt Q9Y5N1)
T1 construct: expressed in transfected cells; host or cells: CHO K1 cells carrying pSwitch, transfected with pGeneH3; mifepristone-induced; clone 3H3; membranes
Assay: Histamine H3 functional antagonist assay (method A), [35S]-GTPγS SPA on membranes
Format: biochemical
Conditions: histamine at EC80

Structure (SMILES)	antagonism in the histamine H3 functional antagonist assay (method A)
CC(C)c1ccc(CC(=O)N2CCN(c3ccc4c(c3)CCN(C3CCCC3)CC4)CC2)cc1 [Example E162, 3-Cyclopentyl-7-(4-{[4-(1-methylethyl)phenyl]acetyl}-1-piperazinyl)-2,3,4,5-tetrahydro-1H-3-benzazepine]	> 6.5 pKb
Cc1nc(C)c(CC(=O)N2CCN(c3ccc4c(c3)CCN(C3CCCC3)CC4)CC2)s1 [Example E178, 3-Cyclopentyl-7-{4-[(2,4-dimethyl-1,3-thiazol-5-yl)acetyl]-1-piperazinyl}-2,3,4,5-tetrahydro-1H-3-benzazepine]	> 9.0 pKb and > 6.5 pKb
O=C(c1ccco1)N1CCN(c2ccc3c(c2)CCN(C2CCCC2)CC3)CC1 [Example E172, 3-Cyclopentyl-7-[4-(2-furanylcarbonyl)-1-piperazinyl]-2,3,4,5-tetrahydro-1H-3-benzazepine]	> 6.5 pKb
O=C(O)C(F)(F)F.O=C(c1ccc(Cl)cc1)N1CCN(c2ccc3c(c2)CCN(C2CCCC2)CC3)CC1 [Example E119, 7-{4-[(4-Chlorophenyl)carbonyl]-1-piperazinyl}-3-cyclopentyl-2,3,4,5-tetrahydro-1H-3-benzazepine trifluoroacetate salt]	> 6.5 pKb
O=C(O)C(F)(F)F.O=C(c1cccc2cnccc12)N1CCN(c2ccc3c(c2)CCN(C2CCCC2)CC3)CC1 [Example E150, 3-Cyclopentyl-7-[4-(5-isoquinolinylcarbonyl)-1-piperazinyl]-2,3,4,5-tetrahydro-1H-3-benzazepine trifluoroacetate salt]	> 6.5 pKb
O=C(Cc1cccc2sccc12)N1CCN(c2ccc3c(c2)CCN(C2CCCC2)CC3)CC1 [Example E169, 7-[4-(1-Benzothien-4-ylacetyl)-1-piperazinyl]-3-cyclopentyl-2,3,4,5-tetrahydro-1H-3-benzazepine]	> 9.0 pKb and > 6.5 pKb
O=C(c1cccc2occc12)N1CCN(c2ccc3c(c2)CCN(C2CCCC2)CC3)CC1 [Example E171, 7-[4-(1-Benzofuran-4-ylcarbonyl)-1-piperazinyl]-3-cyclopentyl-2,3,4,5-tetrahydro-1H-3-benzazepine]	> 9.0 pKb and > 6.5 pKb
CC(=O)N[C@@H](C(=O)N1CCN(c2ccc3c(c2)CCN(C2CCCC2)CC3)CC1)c1ccccc1.O=C(O)C(F)(F)F [Example E139, N—{(1R)-2-[4-(3-Cyclopentyl-2,3,4,5-tetrahydro-1H-3-benzazepin-7-yl)-1-piperazinyl]-2-oxo-1-phenylethyl}acetamide trifluoroacetate salt]	> 6.5 pKb
O=C(O)C(F)(F)F.O=C(c1cccc(Cl)c1)N1CCN(c2ccc3c(c2)CCN(C2CCCC2)CC3)CC1 [Example E118, 7-{4-[(3-Chlorophenyl)carbonyl]-1-piperazinyl}-3-cyclopentyl-2,3,4,5-tetrahydro-1H-3-benzazepine trifluoroacetate salt]	> 6.5 pKb
O=C(O)C(F)(F)F.O=C(c1ccc(-c2ccccc2)cc1)N1CCN(c2ccc3c(c2)CCN(C2CCCC2)CC3)CC1 [Example E104, 7-[4-(4-Biphenylylcarbonyl)-1-piperazinyl]-3-cyclopentyl-2,3,4,5-tetrahydro-1H-3-benzazepine trifluoroacetate salt]	> 6.5 pKb
COc1ccc(C(=O)N2CCN(c3ccc4c(c3)CCN(C3CCCC3)CC4)CC2)cc1.O=C(O)C(F)(F)F [Example E126, 3-Cyclopentyl-7-(4-{[4-(methyloxy)phenyl]carbonyl}-1-piperazinyl)-2,3,4,5-tetrahydro-1H-3-benzazepine trifluoroacetate salt]	> 6.5 pKb
Cn1nccc1C(=O)N1CCN(c2ccc3c(c2)CCN(C2CCCC2)CC3)CC1 [Example E185, 3-Cyclopentyl-7-{4-[(1-methyl-1H-pyrazol-5-yl)carbonyl]-1-piperazinyl}-2,3,4,5-tetrahydro-1H-3-benzazepine]	> 6.5 pKb
CC(C)OCC(=O)N1CCN(c2ccc3c(c2)CCN(C2CCCC2)CC3)CC1.O=C(O)C(F)(F)F [Example E138, 3-Cyclopentyl-7-(4-{[(1-methylethyl)oxy]acetyl}-1-piperazinyl)-2,3,4,5-tetrahydro-1H-3-benzazepine trifluoroacetate salt]	> 6.5 pKb
O=C(O)C(F)(F)F.O=C(c1ccoc1)N1CCN(c2ccc3c(c2)CCN(C2CCCC2)CC3)CC1 [Example E130, 3-Cyclopentyl-7-[4-(3-furanylcarbonyl)-1-piperazinyl]-2,3,4,5-tetrahydro-1H-3-benzazepine trifluoroacetate salt]	> 6.5 pKb
O=C(Cc1cnc2sccn12)N1CCN(c2ccc3c(c2)CCN(C2CCCC2)CC3)CC1.O=C(O)C(F)(F)F [Example E156, 3-Cyclopentyl-7-[4-(imidazo[2,1-b][1,3]thiazol-5-ylacetyl)-1-piperazinyl]-2,3,4,5-tetrahydro-1H-3-benzazepine trifluoroacetate salt]	> 6.5 pKb
O=C(Cc1ccc(C(F)(F)F)cc1)N1CCN(c2ccc3c(c2)CCN(C2CCCC2)CC3)CC1 [Example E165, 3-Cyclopentyl-7-(4-{[4-(trifluoromethyl)Phenyl]acetyl}-1-piperazinyl)-2,3,4,5-tetrahydro-1H-3-benzazepine]	> 9.0 pKb and > 6.5 pKb
Cc1cc(C)n(-c2ccc(C(=O)N3CCN(c4ccc5c(c4)CCN(C4CCCC4)CC5)CC3)cc2)n1.O=C(O)C(F)(F)F [Example E157, 3-Cyclopentyl-7-(4-{[4-(3,5-dimethyl-1H-pyrazol-1-yl)phenyl]carbonyl}-1-piperazinyl)-2,3,4,5-tetrahydro-1H-3-benzazepine trifluoroacetate salt]	> 6.5 pKb
O=C(CN1Cc2ccccc2C1)N1CCN(c2ccc3c(c2)CCN(C2CCCC2)CC3)CC1.O=C(O)C(F)(F)F [Example E117, 3-Cyclopentyl-7-[4-(1,3-dihydro-2H-isoindol-2-ylacetyl)-1-piperazinyl]-2,3,4,5-tetrahydro-1H-3-benzazepine trifluoroacetate salt]	> 6.5 pKb
Cn1nc(C(=O)N2CCN(c3ccc4c(c3)CCN(C3CCCC3)CC4)CC2)c2ccccc21 [Example E183, 3-Cyclopentyl-7-{4-[(1-methyl-1H-indazol-3-yl)carbonyl]-1-piperazinyl}-2,3,4,5-tetrahydro-1H-3-benzazepine]	> 6.5 pKb
Cc1nc(C)c(C(=O)N2CCN(c3ccc4c(c3)CCN(C3CCCC3)CC4)CC2)o1.O=C(O)C(F)(F)F [Example E158, 3-Cyclopentyl-7-{4-[(2,4-dimethyl-1,3-oxazol-5-yl)carbonyl]-1-piperazinyl}-2,3,4,5-tetrahydro-1H-3-benzazepine trifluoroacetate salt]	> 6.5 pKb
c1csc(-c2ccc3c(c2)CCN(C2CCC2)CC3)n1 [Example E202, 3-Cyclobutyl-7-(1,3-thiazol-2-yl)-2,3,4,5-tetrahydro-1H-3-benzazepine]	> 6.5 pKb
CN(C)c1ccc(C(=O)N2CCN(c3ccc4c(c3)CCN(C3CCCC3)CC4)CC2)cc1.O=C(O)C(F)(F)F [Example E123, (4-{[4-(3-Cyclopentyl-2,3,4,5-tetrahydro-1H-3-benzazepin-7-yl)-1-piperazinyl]carbonyl}phenyl)dimethylamine trifluoroacetate salt]	> 6.5 pKb
O=C(c1ccsc1)N1CCN(c2ccc3c(c2)CCN(C2CCCC2)CC3)CC1 [Example E177, 3-Cyclopentyl-7-[4-(3-thienylcarbonyl)-1-piperazinyl]-2,3,4,5-tetrahydro-1H-3-benzazepine]	> 6.5 pKb
CC(=O)Nc1ccc(C(=O)N2CCN(c3ccc4c(c3)CCN(C3CCCC3)CC4)CC2)cc1.O=C(O)C(F)(F)F [Example E122, N-(4-{[4-(3-Cyclopentyl-2,3,4,5-tetrahydro-1H-3-benzazepin-7-yl)-1-piperazinyl]carbonyl}phenyl)acetamide trifluoroacetate salt]	> 6.5 pKb
Cc1ccccc1C(=O)NCC(=O)N1CCN(c2ccc3c(c2)CCN(C2CCCC2)CC3)CC1.O=C(O)C(F)(F)F [Example E116, N-{2-[4-(3-Cyclopentyl-2,3,4,5-tetrahydro-1H-3-benzazepin-7-yl)-1-piperazinyl]-2-oxoethyl}-2-methylbenzamide trifluoroacetate salt]	> 6.5 pKb

Same assay, conditions: histamine at EC80, trifluoroacetate salt

Structure (SMILES)	antagonism in the histamine H3 functional antagonist assay (method A)
O=C(O)C(F)(F)F.O=C(c1ccc(-c2cccnc2)cc1)N1CCN(c2ccc3c(c2)CCN(C2CCCC2)CC3)CC1 [Example E147, 3-Cyclopentyl-7-(4-{[4-(3-pyridinyl)phenyl]carbonyl}-1-piperazinyl)-2,3,4,5-tetrahydro-1H-3-benzazepine trifluoroacetate salt]	> 9.0 pKb and > 6.5 pKb
CC(=O)c1ccc(C(=O)N2CCN(c3ccc4c(c3)CCN(C3CCCC3)CC4)CC2)cc1.O=C(O)C(F)(F)F [Example E111, 1-(4-{[4-(3-Cyclopentyl-2,3,4,5-tetrahydro-1H-3-benzazepin-7-yl)-1-piperazinyl]carbonyl}phenyl)ethanone trifluoroacetate salt]	> 9.0 pKb and > 6.5 pKb
O=C(O)C(F)(F)F.O=C(c1ccc([N+](=O)[O-])cc1)N1CCN(c2ccc3c(c2)CCN(C2CCCC2)CC3)CC1 [Example E121, 3-Cyclopentyl-7-{4-[(4-nitrophenyl)carbonyl]-1-piperazinyl}-2,3,4,5-tetrahydro-1H-3-benzazepine trifluoroacetate salt]	> 9.0 pKb and > 6.5 pKb
